Data on 81 compounds can be found in paper PMC12040169 (PLOS Biology, 2025).

Structures are written as SMILES. The list shows a part of the results.

In the test the test system is T1, CTL2-GFP (C. trachomatis L2/434/Bu, GFP-expressing).
T1 construct: L2/434/Bu, GFP-expressing
Further details: species or system HeLa; Intracellular C. trachomatis growth in HeLa cells, bulk GFP fluorescence relative to DMSO. Particulars: bulk GFP, single well; 28.5 h, 10 µM; inhibitor.
As for `Cc1ccc(-n2ncc3c(=O)n(CC(=O)NC4CCCCC4)cnc32)cc1` [CBK287536], the “% of control remaining” value amounted to 122.159%. With `CCCCCOc1ccc(Nc2ccc(-c3cccc(Cl)c3Cl)cn2)cc1` [CBK036856], the “% of control remaining” value is 91.7322%. Then `O=[N+]([O-])c1ccc(CN2CCC(Oc3nccnc3OCCN3CCOCC3)CC2)cc1` [CBK082923T], with 144.012%. The figure for `CCCNC(=O)c1ccc(NC(=O)NC(CC)c2ccnn2C)c(C)c1` (stereo not drawn) [CBK307608] is 114.919%.

`COc1ccc(C)cc1NC(=O)NC1CCN(Cc2ccccc2)CC1` [CBK267095]: the “% of control remaining” value is reported as 153.32%. Turning to `N#Cc1cnn2c(O)cc(Cc3ccccc3)nc12` [CBK287942], the “% of control remaining” value is 99.0336%. The figure for `Nc1nc2c(nc(OCc3ccccc3)n2C2OC(CO)C(O)C2O)c(=O)[nH]1` (stereo not drawn) [CBK201247] is 134.501%. Then `O=C(CCN1CCCCC1)NCC1OCCc2ccccc21` (stereo not drawn) [CBK013619], with 122.371%; and `CC(Oc1ccc(/C=N/n2cnnc2)cc1)C(=O)O` (stereo not drawn) [CBK263927], with 129.612%; and `c1csc(Sc2nc3ccccc3nc2N2CCCC2)c1` [CBK115225], with 121.472%.

Consider `CC(C)(C)c1nnc(NS(=O)(=O)c2ccc([N+](=O)[O-])cc2)s1` [CBK045500], for which the “% of control remaining” value was determined as 95.8257%. The figure for `COc1ccccc1CN(Cc1cccnc1)C(=O)CCN1CCCO1` [CBK306959] is 105.855%.

`Cc1cc(Cl)cc(Cl)c1S(=O)(=O)Nc1nc(CC(=O)O)cs1` [CBK000573]: the “% of control remaining” value is given as 73.0013%.

In the case of `CN1CCN(C(=O)Cn2cc(C(=O)Nc3ccc(F)cc3)ccc2=O)C(c2ccccc2)C1` (stereo not drawn) [CBK286050], the “% of control remaining” value worked out at 140.257%.

As for `CN(C)CC(=O)N/N=C/c1ccsc1` [CBK008256C], the “% of control remaining” value came out at 99.6203%. As for `O=C(CSc1nnnn1C1CC1)c1cc2ccccc2o1` [CBK297158], the “% of control remaining” value stood at 117.67%. Then `Cc1ccc(S(=O)(=O)N[C@H]2CO[C@H]3[C@@H]2OC[C@@H]3n2nnnc2Oc2ccccc2)cc1` [CBK289485], with 124.117%; and `c1cc(-c2n[nH]c(C3CCNCC3)n2)ccn1` [CBK104676C], with 119.786%.

On to `O=C(c1ccccc1)N1C[C@@H](c2ccsc2)[C@@H]2CN(Cc3ccccc3Cl)CC[C@@H]21` [CBK285613], for which the “% of control remaining” value worked out at 68.4162%. The figure for `FC(F)(F)c1cccnc1OCCN1CCOCC1` [CBK113456] is 133.799%; for `Cc1ccc(Nc2cc(-c3cccnc3)ncn2)cc1NS(C)(=O)=O` [CBK091147] it is 170.052%.

Take `COc1cccc2cc(C(=O)NCc3cccs3)oc12` [CBK149799]: the “% of control remaining” value is 97.8554%. Then `CCC1(CC)OC(N[C@@H](C)c2ccc(Br)cc2)=NC1=O` [CBK126665], with 88.7562%; and `Cc1oc(C)c(C(=O)Nc2cccc(C(=O)O)c2)c1C(=O)Nc1cccc(C(=O)O)c1` [CBK266472], with 168.778%. Then `CC(Oc1cccc(Br)c1)C(=O)NCCC(=O)O` (stereo not drawn) [CBK268024], with 132.955%. The figure for `CCOC(=O)Cn1[nH]c(CO)c(Cc2c(Cl)cccc2Cl)c1=O` [CBK103580] is 114.158%. With `COc1ncc(-c2nccnc2OCCc2c[nH]c3ccccc23)c(OC)n1` [CBK106743], the “% of control remaining” value is listed as 165.451%. The figure for `COc1ccc(-c2cnccc2-n2ccnc2)cn1` [CBK177147] is 144.265%; for `Cc1cc(C)nc(NC(=O)OCc2cc(C)nc(C)c2)c1` [CBK138231] it is 131.549%; for `CC(C)Nc1cccnc1N1CCN(C(=O)c2cc3cc(NS(=O)(=O)CCc4ccncc4)ccc3[nH]2)CC1` [CBK012661] it is 115.537%. Then `COc1ccc(C(=O)N2CCN(C)CC2)cc1Nc1cncc(-c2cc3ccccc3o2)n1` [CBK155266T], with 100%; and `Cc1cc(C(=O)N2CCCC(c3ccc(Cc4ccc(Cl)cc4)cn3)C2)nc(N(C)C)n1` (stereo not drawn) [CBK286036], with 42.3368%; and `Nc1ncc(-c2cccc3cccnc23)nc1NCc1ccncc1` [CBK063622], with 163.75%.

With `COc1cncc(-c2cnc(N)c(NCc3cccnc3)n2)c1` [CBK063531], the “% of control remaining” value is listed as 150.294%.

For the compound `CCOc1cccc2cc(-c3cc(=O)oc4cc(C)c(O)cc34)oc12` [CBK300517], the “% of control remaining” value is 109.189%. Consider `CCc1cnc(CN(C)C2CCN(CC(=O)NCc3ccco3)C2)o1` (stereo not drawn) [CBK306137], for which the “% of control remaining” value is listed as 121.712%. Then `Cc1ccc(CCn2nc(C)cc2C)cn1` [CBK021375], with 122.806%; and `COc1ccccc1Cc1cccc(C2CCN(C(=O)Cc3c[nH]c4ccccc34)CC2)n1` [CBK286226], with 106.828%; and `COC(=O)c1sccc1Oc1ccc([N+](=O)[O-])cn1` [CBK066826], with 103.756%. The figure for `CC(C)Nc1nc2ccccc2nc1SCCC(=O)O` [CBK107858] is 118.661%; for `COc1c(Cl)cc(Cl)cc1C(=O)NC(=S)Nc1sc2c(c1C#N)CCCC2` [CBK268741] it is 153.476%; for `COc1ccc(C(=O)N2CCC3(CCCN(CCN(C)C)C3)C2)cc1OC` (stereo not drawn) [CBK132873] it is 117.272%. The figure for `O=C(NCCCO)c1c(O)c2ccccc2[nH]c1=O` [CBK018215] is 107.321%; for `CC(CNC(=O)c1cncc(O)c1)NC(=O)c1cncc(O)c1` (stereo not drawn) [CBK278174] it is 111.658%; for `CCOC(=O)c1c(NC(=O)CN2CCCCC2)sc2c1CCCC2=O` [CBK263224] it is 112.891%. For `CC(C)(C)OC(=O)NC1CCN(C(=O)CCC(=O)O)CC1` [CBK286604], the “% of control remaining” value amounted to 129.005%. Then `CC1CCN(S(=O)(=O)c2cccc(C(=O)NNC(=O)c3ccco3)c2)CC1` [CBK266796], with 138.182%; and `Cc1scc(C(=O)NN2CCN(C)CC2)c1-c1ccccc1` [CBK268115], with 147.534%. `O=C1CC(C(=O)NCc2ccc(-c3csnn3)cc2)c2ccccc21` (stereo not drawn) [CBK149301]: the “% of control remaining” value is given as 92.5139%.

With `Oc1cccc(OCCOc2cccc(C(F)(F)F)n2)c1` [CBK115797], the “% of control remaining” value came out at 98.6778%. The figure for `COc1ccc(C(C)C)cc1-c1cnc2nc(N)ccc2c1` [CBK081216] is 74.4813%. Then `N#Cc1ccc(OCCO)cc1` [CBK000723], with 96.0816%. On to `Cn1c(SCC(=O)c2ccc(Cl)cc2)nnc1-c1cnccc1C(F)(F)F` [CBK067698], for which the “% of control remaining” value is reported as 79.216%. Then `CCN1CCN(CCCOc2ccccc2Cc2ccccc2)CC1` [CBK267379G], with 119.902%; and `CC[C@@H]1COCCN1C(=O)c1sc2ccccc2c1Cl` [CBK103641], with 131.441%; and `Cc1ccccc1CSc1nc2ccc([N+](=O)[O-])cc2[nH]1` [CBK267879], with 95.3272%. Then `CSCCCNC(=O)N1CCNC(=O)C1` [CBK155848], with 93.7087%.

For the compound `COc1ccc2c(c1)C1(CC(=O)N(CCc3scnc3C)C1=O)C(=O)N2C` (stereo not drawn) [CBK075213], the “% of control remaining” value worked out at 106.046%. The figure for `Fc1ccc(-c2cn(-c3cncnc3)nn2)c(F)c1` [CBK112989] is 100%; for `CCC1CCC2(CC1)NC(=O)N(Cc1nc(-c3cccs3)no1)C2=O` (stereo not drawn) [CBK305005] it is 131.713%. The figure for `N=c1n(CCN2CCCCC2)c2ccccc2n1CC(=O)c1cccs1` [CBK278244B] is 100%; for `O=C(NCCNc1ccc(Cl)cc1[N+](=O)[O-])c1ccccc1Br` [CBK263538] it is 118.78%; for `O=C(O)c1cc(S(=O)(=O)N2CCOCC2)c(Cl)cc1NC1CCCCC1` [CBK264576] it is 125.514%.

In the case of `Cc1ccc(-c2ncc(OCC3CCCN3C)nc2N)c(C)c1` (stereo not drawn) [CBK145137], the “% of control remaining” value is 125.26%. Consider `Cc1c(NC(=O)c2ccc3c(c2)C(=O)N(Cc2ccco2)C3=O)cccc1C(=O)O` [CBK268627], for which the “% of control remaining” value is 164.169%. Then `Cc1cc(CN2CCN(c3nc(-c4ccccc4)nc4ccccc34)CC2)no1` [CBK296654], with 143.511%; and `CC(C)(C)OC(=O)N1CCC(CNS(=O)(=O)c2cccc3cccnc23)CC1` [CBK086017], with 117.145%. The figure for `COc1ccc(CN(CCCN2CCOCC2)C(=O)NCc2ccc(C#N)cc2)cc1OC` [CBK159125] is 127.762%. The figure for `CN(C)c1cccc(Nc2cc(-c3ccco3)ncn2)c1` [CBK091014] is 128.645%. Turning to `CCOc1ccccc1NC(=O)CSc1cnn[nH]1` [CBK270005], the “% of control remaining” value came out at 162.576%. Then `COc1cccc(CN2CCN(C(=O)N3CCCC3)[C@@H](C)C2)c1` [CBK285491], with 94.515%; and `CN1CCN(c2ccc([N+](=O)[O-])cc2/C=N/NC(=O)CCc2ccccc2O)CC1` [CBK263281], with 117.459%. The figure for `COc1ccc2[nH]c(C(=O)O)c(CCNC(C)=O)c2c1` [CBK260943N] is 111.517%; for `Cc1sc2ncn(CC3(O)CCCNC3)c(=O)c2c1-c1ccc(F)cc1` (stereo not drawn) [CBK307346] it is 146.321%; for `COc1ccc(C(=O)Nc2ccccc2N2CCN(C)CC2)c(OC)c1` [CBK269763] it is 87.7657%.

Take `CC1(C)OC(NC2CC3CCC2C3)=NC1=O` (stereo not drawn) [CBK092237]: the “% of control remaining” value is 144.47%. The figure for `O=C(O)c1nc(/N=C/c2ccc(C#Cc3ccccc3)cc2)n[nH]1` [CBK261219] is 109.797%.

For the compound `COc1ccc(C(=O)N2CCC3(CCCN(C(=O)c4cc(OC)c(OC)c(OC)c4)C3)C2)cc1OC` (stereo not drawn) [CBK131667], the “% of control remaining” value is listed as 122.477%. Consider `NCC(=O)Nc1ccc(F)c(F)c1` [CBK046313], for which the “% of control remaining” value is recorded as 122.662%.

Regarding `Cc1ccc2oc(C(=O)N3CCN(CC(=O)N(C)C)CC3)c(C)c2c1` [CBK281423], the “% of control remaining” value turned out to be 115.996%.

With `O=C(NCc1ccc(Cl)c(Cl)c1)C1(c2ccccc2)CCCC1` [CBK149528], the “% of control remaining” value amounted to 66.1206%.
